Results on 1 substance are retold here after publication PMC9732310.

Chains of the proteins cited; added tags and fusions are not shown.
UniProt Q5VZM2: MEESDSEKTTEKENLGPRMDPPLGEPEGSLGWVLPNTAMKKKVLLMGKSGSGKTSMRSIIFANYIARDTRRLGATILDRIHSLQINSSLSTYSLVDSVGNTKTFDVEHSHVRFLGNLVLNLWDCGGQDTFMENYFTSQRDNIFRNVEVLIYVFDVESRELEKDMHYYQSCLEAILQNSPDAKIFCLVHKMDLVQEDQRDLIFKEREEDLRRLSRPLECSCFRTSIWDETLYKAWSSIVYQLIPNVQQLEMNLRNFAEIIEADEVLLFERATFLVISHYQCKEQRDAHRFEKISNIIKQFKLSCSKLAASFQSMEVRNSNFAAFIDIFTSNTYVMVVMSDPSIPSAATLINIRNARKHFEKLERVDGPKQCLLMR

Experiment [1] concerns the target FLAG-RagA (UniProt Q7L523). The experiment in a line: affinity purification with mass spectrometry; extracts of HEK-293T cells expressing FLAG-Gal3, FLAG-RagA or FLAG-RagC on an anti-FLAG M2 affinity column, washed with cold PBS plus 0.1% Nonidet P-40, eluted with 3x FLAG peptides; SDS-PAGE, silver stain, LC/MS-MS.
Experiment [2] addresses FLAG-RagC (UniProt Q9HB90). The description is as above.

These are yes or no findings as the source states them, for the method shown. In cells and extracts the contact can be indirect. These calls come from enrichment with a bait or labelling near it, and not all partners need be listed.

On to RagB (from UniProt Q5VZM2 1-374), for which the binding result in experiment [1] and in experiment [2] was “binds” each time.
